Experimental data: PubChem BioAssay AID1487 (National Center for Advancing Translational Sciences (NCATS), 2009)
Some of the results follow. These are further read-outs of the screen, such as a control signal, another cell line or another target. No call is given for them. Compounds called inactive in the main read-out are mostly missing here. The note in brackets gives the kind of curve behind each potency; many fits are weak.

Assay: qHTS Assay for Modulators of Lamin A Splicing
Conditions: HeLa LMNA splicing GFP/RFP minigene ratio, 48 h
Method in brief: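 S3 HeLa cells stably expressing lamin A-EGFP splicing minigene plus DsRed2, 600 cells/well, 48 h compound exposure at 37C. Laser-scanning cytometry; analysed as GFP (500-530 nm)/RFP (575-640 nm) total intensity ratio; 0.5% DMSO vehicle.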

[1] = measured here: GFP splicing reporter channel
[2] = measured here: RFP viability control channel

SMILES	AC50 [1]	AC50 [2]
COC(=O)c1ccc(C(=O)OC)c(-n2c(=O)c3ccccc3c3ccccc3c2=O)c1	22.4 µM [falling, single point]	
COC(=O)C1=C(N)Oc2cc(C)n(C)c(=O)c2C1c1ccc(Cl)cc1 (centres undefined)		35.5 µM [rising, single point]
CC(C)OC(=O)c1c(-c2ccc(C(C)C)cc2)csc1NC(=O)C1CCCO1 (centres undefined)	14.1 µM [rising, partial curve]	17.8 µM [rising, partial curve]
C=CCC1(N(C(C)=O)c2ccccc2C)CCCCC1	8.91 µM [rising, partial curve, poor fit]	
COc1ccccc1OCC(O)Cn1c(=N)n(Cc2ccccc2)c2ccccc21 (centres undefined)	25.1 µM [rising, partial curve, poor fit]	15.8 µM [rising, single point]
CCOC(=O)C1=C(C)NC(=O)NC1c1ccc(OC)c(Cl)c1 (centres undefined)	11.2 µM [rising, single point]	
CN(C)S(=O)(=O)c1cccc(NC(=O)c2cc(-c3cccs3)nc3ccccc23)c1		14.1 µM [rising, single point]
COC(=O)c1c(C)[nH]c(-c2csc(N)n2)c1C		35.5 µM [rising, single point]
O=C(NC1CCCC1)C(=O)N(Cc1cccnc1)C(C(=O)NCc1ccco1)c1ccccc1F (centres undefined)	17.8 µM [rising, single point]	15.8 µM [rising, single point]
O=c1c(Cc2ccc(Cl)cc2Cl)c(O)ccn1CCCN1CCOCC1	1.12 µM [falling, full curve]	
COC(=O)/C(=C1/Oc2cc(C)oc(=O)c2S1)C(F)(F)F	25.1 µM [falling, single point]	17.8 µM [falling, single point]
CCN(CC)c1ccc(NC(=O)C2COc3ccc(OC)cc3C2)c(C)c1 (centres undefined)		2.51 µM [rising, partial curve]
Cn1c(SCc2ccc(C(C)(C)C)cc2)nnc1C1COc2ccccc2O1 (centres undefined)		35.5 µM [falling, single point]
O=c1c2c([nH]c3ccccc13)C(=C1CCCC1)CC2	2.82 µM [rising, full curve, poor fit]	8.91 µM [rising, partial curve]
O=C(Nc1ncc(Cc2cccc(C(F)(F)F)c2)s1)c1ccc(-c2cccc([N+](=O)[O-])c2)o1	3.98 µM [rising, full curve]	6.31 µM [rising, full curve]
O=C1CCC(C(=O)Nc2nnc(C3CC3)s2)=NN1	0.00447 µM [falling, full curve, poor fit]	
CCNc1nc(NCC)n2c(SCC(=O)Nc3ccccc3[N+](=O)[O-])nnc2n1	5.01 µM [rising, full curve, poor fit]	
CC(Nc1ccc(Br)cc1)C(=O)N/N=C/c1ccccc1OCc1ccccc1 (centres undefined)	22.4 µM [rising, single point]	28.2 µM [rising, single point]
Cc1ccc(C)c(/C=C/C(=O)c2ccccc(=O)c2O)c1		20 µM [rising, partial curve, poor fit]
CC[C@H](C)[C@H](NC(=O)OCc1ccccc1)C(=O)Nc1ccc(NC(C)=O)cc1	2.51 µM [falling, partial curve, poor fit]	2.82 µM [falling, full curve]
Cc1cccc(C)c1NC(=S)NCCSc1ccc(Cl)cc1	0.00447 µM [falling, full curve, poor fit]	0.00355 µM [falling, full curve, poor fit]
Cc1cc(C)c(C#N)c(N2CCN(Cc3ccc4c(c3)OCO4)CC2)n1	5.62 µM [rising, partial curve, poor fit]	11.2 µM [rising, partial curve]
CC(=O)c1c(C)[nH]c(C(=O)OCC(=O)NCCc2ccc(F)cc2)c1C	12.6 µM [rising, partial curve]	14.1 µM [rising, partial curve]
C=CCn1c(SCc2csc(-c3ccc(Cl)cc3)n2)nnc1-c1ccccc1OC		35.5 µM [rising, single point]
Cc1c(C(=O)N(C)c2cccc(C(F)(F)F)c2)sc2nc3n(c(=O)c12)CCCCC3		14.1 µM [rising, partial curve, poor fit]
Cc1ccc2nc(SCCCCOc3ccccc3)[nH]c2c1	35.5 µM [falling, single point]	25.1 µM [falling, single point]
N#CNC(=Nc1cccc(F)c1)SCc1cccc(F)c1	35.5 µM [rising, single point]	20 µM [rising, single point]

Part of the list above in order of molecular weight, smallest number first:
SMILES	AC50 [1]	AC50 [2]
O=c1c2c([nH]c3ccccc13)C(=C1CCCC1)CC2	2.82 µM [rising, full curve, poor fit]	8.91 µM [rising, partial curve]
C=CCC1(N(C(C)=O)c2ccccc2C)CCCCC1	8.91 µM [rising, partial curve, poor fit]	
Cc1ccc(C)c(/C=C/C(=O)c2ccccc(=O)c2O)c1		20 µM [rising, partial curve, poor fit]
CCOC(=O)C1=C(C)NC(=O)NC1c1ccc(OC)c(Cl)c1 (centres undefined)	11.2 µM [rising, single point]	
Cn1c(SCc2ccc(C(C)(C)C)cc2)nnc1C1COc2ccccc2O1 (centres undefined)		35.5 µM [falling, single point]
COC(=O)c1ccc(C(=O)OC)c(-n2c(=O)c3ccccc3c3ccccc3c2=O)c1	22.4 µM [falling, single point]	
CCNc1nc(NCC)n2c(SCC(=O)Nc3ccccc3[N+](=O)[O-])nnc2n1	5.01 µM [rising, full curve, poor fit]	
Cc1c(C(=O)N(C)c2cccc(C(F)(F)F)c2)sc2nc3n(c(=O)c12)CCCCC3		14.1 µM [rising, partial curve, poor fit]
CC(Nc1ccc(Br)cc1)C(=O)N/N=C/c1ccccc1OCc1ccccc1 (centres undefined)	22.4 µM [rising, single point]	28.2 µM [rising, single point]
C=CCn1c(SCc2csc(-c3ccc(Cl)cc3)n2)nnc1-c1ccccc1OC		35.5 µM [rising, single point]
O=C(NC1CCCC1)C(=O)N(Cc1cccnc1)C(C(=O)NCc1ccco1)c1ccccc1F (centres undefined)	17.8 µM [rising, single point]	15.8 µM [rising, single point]

(further entries)

SMILES	AC50 [1]	AC50 [2]
COc1cc(CC(=O)NCCc2ccc(S(N)(=O)=O)cc2)cc(OC)c1OC	3.98 µM [falling, partial curve]	11.2 µM [falling, partial curve]
Cc1[nH]n(-c2ccccc2)c(=O)c1-c1ccc(Cl)cc1		12.6 µM [rising, single point]
CCn1c(CN2CCOCC2)nc2cc(NC(=O)c3cc(OC)c(OC)c(OC)c3)ccc21	0.1 µM [falling, full curve]	0.00316 µM [falling, full curve, poor fit]
CC(C)C(=O)N=C1SC2CS(=O)(=O)CC2N1Cc1ccccc1 (centres undefined)	35.5 µM [rising, single point]	
NCCCC(O)(P(=O)(O)O)P(=O)(O)O	35.5 µM [falling, single point]	3.55 µM [rising, full curve, poor fit]
COc1cccc(S(=O)(=O)Nc2cccc(C(=O)N3CCCCCC3)c2)c1	14.1 µM [rising, partial curve, poor fit]	14.1 µM [rising, partial curve]
O=c1c2ccccc2nc(-c2cccc(Cl)c2)n1O		31.6 µM [rising, single point]
COc1ccc(C(=O)CCN2CCc3cc(OC)c(OC)cc3C2)cc1		6.31 µM [falling, full curve]
CCC(c1nnnn1Cc1ccco1)N(CCc1ccccc1)Cc1cc2ccc(OC)cc2[nH]c1=O (centres undefined)	14.1 µM [rising, single point]	14.1 µM [rising, single point]
O=S(=O)(NCc1ccc(F)cc1)c1cccc(S(=O)(=O)N2CCOCC2)c1		1.41 µM [falling, full curve, poor fit]
CCOc1ccc(NC(=O)c2ccc(F)c(S(=O)(=O)NCc3ccc4c(c3)OCO4)c2)cc1	22.4 µM [falling, partial curve, poor fit]	
Cc1nc(-c2cccc(NS(=O)(=O)c3ccc4ccccc4c3)c2)cs1	35.5 µM [rising, single point]	31.6 µM [rising, single point]
COc1ccc(-n2c(SCc3ccccc3F)nc3c([nH]c4ccccc43)c2=O)cc1	22.4 µM [falling, partial curve, poor fit]	35.5 µM [falling, single point]
Nc1ccc(S(=O)(=O)Nc2cnc3ccccc3n2)cc1		0.0562 µM [rising, full curve, poor fit]
Nc1c(C(=O)Nc2ccc(Br)cc2)sc2nc(-c3ccco3)ccc12	7.08 µM [rising, partial curve]	12.6 µM [rising, partial curve]
CCOC(=O)CNC(=O)c1sc(NC(=O)c2ccccc2)nc1C	15.8 µM [rising, single point]	20 µM [rising, single point]
CCn1cc(C2=NOC(C(=O)Nc3ccc4c(c3)OCO4)C2)c(C)n1 (centres undefined)	11.2 µM [rising, single point]	14.1 µM [rising, partial curve]
O=C(CSc1nnc(SCc2ccc(Cl)cc2)s1)N1CCOCC1		3.55 µM [falling, single point]
COc1cccc(/C=N/NC(=O)CSCC(=O)Nc2ccccc2)c1O		28.2 µM [rising, single point]
COc1ccc(CCNC(=O)CS(=O)Cc2nc(-c3ccc(C)cc3)oc2C)c(OC)c1 (centres undefined)	0.00447 µM [rising, full curve, poor fit]	
COc1ccc(C)cc1NC(=O)C(Sc1ccccc1)c1ccccc1 (centres undefined)	11.2 µM [rising, partial curve]	17.8 µM [rising, partial curve]
Cc1ccc(-n2c(C)cc(/C=N/NC(=O)c3ccncc3)c2C)cc1C	11.2 µM [rising, partial curve, poor fit]	12.6 µM [rising, partial curve, poor fit]
C=CCN(CC=C)C(=S)NC(=O)c1ccc(OC)cc1	0.0251 µM [rising, full curve, poor fit]	
Cc1cc2ncn(/N=C/c3ccc([N+](=O)[O-])s3)c2cc1C	35.5 µM [falling, single point]	20 µM [falling, single point]
O=c1[nH]c(=O)n(C2CCCO2)cc1Br (centres undefined)	11.2 µM [falling, partial curve]	
O=c1[nH]c(CN2CCN(S(=O)(=O)c3cccs3)CC2)nc2c(Br)cc(Br)cc12	35.5 µM [falling, single point]	
